Results deposited as PubChem BioAssay AID1224826 (NIAID, 2016)
Screen: 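Regulators of Tlr4 signalling leading to Tnf-alpha expression in macrophages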 (primary screen). System: RAW264.7 G9 macrophages from mouse bearing reporters for p65 (GFP) and the Tnf promoter (mCherry). Knock-down reagent: siRNA pool against mouse genes, 100 nM. Duration: 16 h of LPS stimulation, after 2 days of siRNA transfection. Treatment: bacterial lipopolysaccharide (Salmonella minnesota R595), 10 ng/ml. Measured: 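Nuclear mCherry signal of the Tnf promoter reporter measured by imaging after background removal, scaled to each plate median and turned into robust z-scores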. Reading the numbers: Tnf reporter robust z-score: higher = stronger Tnf promoter reporter signal after LPS. Hit rule: 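a well counts as active at a score of -1.3 or below (Tlr4 knock-down control median) or above 3 (raised signal); controls and wells holding fewer than 50 cells are excluded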. Meaning of the calls: active = Tnf reporter clearly lowered or raised; inactive = no clear change in Tnf reporter.
In all, the deposit lists about 17,000 reagents; this is a part drawn at random. About 1,110 of all reagents (6.6%) were called active. 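Active means lowered or raised reporter signal; replicate intensities are raw and not normalised per plate.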 Not all columns of the deposit are shown. No sequences are given here.

The first 3 records, to show the layout:
gene knocked down	Tnf reporter robust z-score	fewer than 50 cells in well	activity call
Cpne9	0.78	enough cells in well	inactive
Myo1c	-1.11	enough cells in well	inactive
Oplah	-0.49	enough cells in well	inactive

The list itself, from the first entry:
gene knocked down	Tnf reporter robust z-score	fewer than 50 cells in well	activity call
Cpne9	0.78	enough cells in well	inactive
Myo1c	-1.11	enough cells in well	inactive
Oplah	-0.49	enough cells in well	inactive
Lipi	-0.13	enough cells in well	inactive
Nos1	-0.31	enough cells in well	inactive
Itpr2	1.24	enough cells in well	inactive
Dsp	0.35	enough cells in well	inactive
Rapgef5	-0.33	enough cells in well	inactive
Gm56926	-0.38	enough cells in well	inactive
Atmin	-0.39	enough cells in well	inactive
Rnf14	-0.74	enough cells in well	inactive
Or4c112	-1.52	enough cells in well	active
B4galt7	-0.45	enough cells in well	inactive
Clip2	0.43	enough cells in well	inactive
B3galt4	-0.16	enough cells in well	inactive
Gabre	0.13	enough cells in well	inactive
St6galnac2	1.56	enough cells in well	inactive
Lzts3	-0.54	enough cells in well	inactive
Fhl5	0.18	enough cells in well	inactive
Mcub	-1.73	enough cells in well	active
Dbf4	0.89	enough cells in well	inactive
Myo10	0.83	enough cells in well	inactive
Icam1	-0.46	enough cells in well	inactive
Ttr	0.01	enough cells in well	inactive
Slc5a1	1.14	enough cells in well	inactive
Porcn	0.12	enough cells in well	inactive
Ncald	0.61	enough cells in well	inactive
Chtop	-0.77	enough cells in well	inactive
Or4x11	-0.13	enough cells in well	inactive
Cacna1d	-1.43	enough cells in well	active
Rps27	-0.49	enough cells in well	inactive
Gkap1	-0.28	enough cells in well	inactive
Serpinb5	0.49	enough cells in well	inactive
Kcnn1	-1.03	enough cells in well	inactive
Dmrtc2	0.26	enough cells in well	inactive
Kirrel2	2	enough cells in well	inactive
Colgalt2	0.16	enough cells in well	inactive
Galk1	-1.5	enough cells in well	active
Zbtb11	1.26	enough cells in well	inactive
Atp8a1	-0.57	enough cells in well	inactive
